Literature values, collected in patent US20150209375A1, “POSOLOGY AND ADMINISTRATION OF GLUCOCORTICOID BASED COMPOSITIONS” (DuoCort Pharma AB, priority 2010, published 2015).
At least one compound was matched to its structure with a doubt left.

Conditions: Hong et al. 2007

C[C@@H]1C[C@H]2[C@@H]3CCC4=CC(=O)C=C[C@]4(C)[C@@]3(F)[C@@H](O)C[C@]2(C)[C@@]1(O)C(=O)CO [Dexamethasone]
duration of effect: at least 24 hours
